Experimental data as given in patent publication US10117909B2, “Combination of an insulin and a GLP-1 agonist” (Sanofi-Aventis Deutschland GmbH, priority 2008, dated 2018).
Some of these results come from one statement about several compounds together.

Test system: Insulinoma cell line INS-1
Test: Cytokine- and lipotoxicity-induced β-cell apoptosis in vitro
Type: cell-based, rat
Conditions: INS-1 cells; 5 h with test compound, then cytokine mix 22 h (1 ng/mL IFN-γ+4 ng/mL IL-1β) or 0.5 mM FFA 18 h

| Substance | prevention of apoptosis (caspase-3 activity, fragmentation of cell nuclei) |
| --- | --- |
| Gly(A21)-Arg(B31)-Arg(B32) human insulin [insulin glargine] | 40-50% |
| des Pro^36exendin-4(1-39)-Lys6-NH2 [AVE0010] | 40-50% |
